Data reported in PubChem BioAssay AID2685 (National Center for Advancing Translational Sciences (NCATS), 2010).
The list shows a part of the results. The main result of the screen is listed elsewhere. These columns were measured beside it and carry no call. Compounds called inactive in the main read-out are mostly missing here. Words in brackets tell the shape of the fitted curve; partial curves, single points and poor fits give uncertain potencies.

Test: qHTS Assay for Lipid Storage Modulators in Drosophila S3 Cells;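 as to cell number change: cells counted by Cell Tracker Red CMTPX staining in the red channel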
Conditions: BODIPY lipid droplet fluorescence, 18-24 h; for cell number change: measured here: cell count max response, cells fed with added oleic acid
Outline: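 Drosophila S3 cells got compounds at several concentrations plus oleic acid (400 uM solution). Laser-scanning cytometry with 488 nm excitation read lipid droplets at 500-530 nm and cells at 575-640 nm. Percent activity was relative to 20 uM Triacsin C.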

[1] = measured here: cell number channel AC50, cells fed with added oleic acid
[2] = measured here: lipid fluorescence (Fed channel) AC50, cells fed with added oleic acid

| SMILES | cell number change [%] | AC50 [1] | AC50 [2] |
| --- | --- | --- | --- |
| CC(=O)N1CCc2cc(S(=O)(=O)NC(C(=O)NC(C)c3ccccc3)C(C)C)ccc21 (configuration not stated) | -24.8 | 0.231 µM [falling, full curve, poor fit] |  |
| CSCCC(NC(=O)COc1ccccc1)C(=O)N(C)Cc1ccc(F)cc1 (configuration not stated) | -10.6 |  |  |
| O=C(COC(=O)c1n[nH]c(=O)c2ccccc12)Nc1ccccc1 | -58 |  |  |
| O=CN1CCN(C(=O)c2ccc3c(c2)OCO3)CC1 | -2.02 |  |  |
| O=C(Nc1nnc(C2=COCCO2)o1)c1ccc(Cc2ccccc2)cc1 | -33.5 | 20.6 µM [falling, single point] |  |
| CC1CCN(S(=O)(=O)c2ccc(C(C)C)cc2)CC1 | -13.9 |  | 0.092 µM [falling, full curve, poor fit] |
| O=C(N/N=C/c1ccc(OC(=O)c2ccccc2)cc1)c1cccc(O)c1 |  |  | 5.17 µM [falling, full curve, poor fit] |
| Cc1ccc(S(=O)(=O)Cc2ccc(C(=O)N3CCN(c4ccccn4)CC3)o2)cc1 |  | 0.731 µM [rising, full curve] | 29.1 µM [rising, single point] |
| Cc1ccc(NS(=O)(=O)c2ccc(-c3coc(C)n3)cc2)c(Br)c1 |  |  | 29.1 µM [rising, single point] |
| COc1cc(OC)c2c(C)cc(=O)oc2c1C(CCN1CCOCC1)c1ccc2c(c1)OCO2 (configuration not stated) | 9.58 |  | 0.411 µM [rising, full curve, poor fit] |
| CCCOc1ccc(NC(=O)CC2Nc3ccccc3NC2=O)cc1 (configuration not stated) | 19 |  |  |
| COc1ccc(-c2nc(-c3cccc(C)c3)nc(Cl)c2C#N)cc1 | -30.5 | 0.82 µM [falling, full curve] | 0.92 µM [falling, full curve] |
| CC(Oc1ccc(Cl)cc1Cl)C(=O)NC1CCSC1=O (configuration not stated) | 8.77 |  |  |
| CCc1ccccc1NC(=O)CCCSc1nc2ccccc2s1 | 37.4 | 18.4 µM [rising, single point] |  |
| O=C(COC(=O)c1cc([N+](=O)[O-])ccc1N1CCOCC1)Nc1ccc(Cl)cn1 | -16.8 |  |  |
| Cc1ccc(OCc2ccc(C(=O)NCC3CCCO3)cc2)cc1C (configuration not stated) |  |  | 13 µM [falling, partial curve] |
| CCOC(=O)c1ccc(NC(=O)c2nc[nH]c2C(=O)N2CCN(C(=O)OC(C)(C)C)CC2)cc1 | 5.25 |  | 3.66 µM [rising, single point] |
| Cc1ccc(S(=O)(=O)Oc2ccc(/C=N/N=C3/NC(=O)C(CC(=O)O)S3)cc2)cc1 (configuration not stated) | 110 | 16.4 µM [rising, partial curve] |  |
| CC(=O)c1ccc(-c2cccc(-c3nc4ccccn4c3NC3CCCCC3)c2)cc1 | 12.7 |  |  |
| CCn1c(SCc2nc3scc(-c4ccccc4)c3c(=O)[nH]2)nnc1-c1ccc(Cl)cc1 | -30.9 | 0.731 µM [falling, full curve, poor fit] |  |
| COc1ccc(/C=C(/NC(=O)c2ccco2)C(=O)NCc2ccco2)cc1OC | -30.8 | 14.1 µM [falling, single point] | 17.8 µM [falling, partial curve] |

| SMILES | cell number change [%] | AC50 [1] | AC50 [2] |
| --- | --- | --- | --- |
| Cc1ccc(C(=O)OCC(=O)Nc2cc(S(=O)(=O)N3CCOCC3)ccc2C)cc1 | 20.4 | 6.51 µM [rising, single point] | 1.64 µM [rising, partial curve, poor fit] |
| O=C(O)c1cc(=O)c2ccccc2[nH]1 | -10 |  | 0.00461 µM [falling, full curve, poor fit] |
| O=C(NCCC1=CCCCC1)c1ccc(Cl)c([N+](=O)[O-])c1 | -1.6 | 5.17 µM [rising, single point] |  |
| Cc1cccc(NC(=O)CC2C(=O)NCCN2C(=S)Nc2ccccc2)c1 (configuration not stated) | 93.7 | 25.9 µM [rising, single point] |  |
| C=CCn1c(=S)[nH]c2cc(C(=O)Nc3ccc(F)cc3)ccc2c1=O | 42.7 | 29.1 µM [rising, single point] | 23.1 µM [falling, single point] |
| Cc1cccc(C)c1NC(=O)NCc1ccco1 | 7.52 |  | 0.291 µM [rising, partial curve, poor fit] |
| CCCc1nnc(NC(=O)CCC(=O)N2CCCCC2CC)s1 (configuration not stated) | -1.76 |  |  |
| CCN1CCN(Cc2ccc(NC(=O)c3ccc(C)c(NC(=O)N4CCNC4=O)c3)cc2C(F)(F)F)CC1 |  |  | 14.6 µM [rising, partial curve] |
| CC(=O)C1C(c2ccc(Cl)cc2)c2c(noc2C)CC1(C)O (configuration not stated) | 14.4 |  | 29.1 µM [rising, single point] |
| O=C(NC1CCCCC1)C(=S)NCc1ccccc1 |  |  | 18.4 µM [rising, partial curve] |
| Cc1ccc(-c2noc(C3CCCN(C(=O)C4CCCCC4)C3)n2)o1 (configuration not stated) | 101 | 29.1 µM [rising, single point] | 29.1 µM [rising, single point] |
| COc1ccccc1NC(=O)NC1CCCCCCC1 | 2.02 |  | 16.4 µM [rising, single point] |
| CCC(CO)n1c(SCc2cc(=O)oc3cc(C)ccc23)nc2ccccc2c1=O (configuration not stated) | 4.68 |  | 29.1 µM [rising, single point] |
| O=C(NCCCc1ccccc1)c1ccc([N+](=O)[O-])cc1Cl | -2.81 |  |  |
| Cc1cccc(NC(=S)N(Cc2cccs2)Cc2cc3cc(C)ccc3[nH]c2=O)c1 | 58.4 | 32.6 µM [rising, single point] | 16.4 µM [falling, single point] |
| Cc1cc(C)n(CCCNCC(O)c2ccccc2)n1 (configuration not stated) | 152 |  |  |
| CCc1oc2ccccc2c1C(=O)CCN1CCCCC1 | -28.7 |  | 4.11 µM [rising, single point] |
| COc1ccccc1NC(=O)Nc1ccc(C(N)=O)cc1 |  |  | 29.1 µM [falling, single point] |
| COc1ccc(S(=O)(=O)NCc2ccccn2)cc1Br |  |  | 6.51 µM [rising, single point] |
| Cc1ccc(S(=O)(=O)N2CCN(C(=O)Cc3ccc4c(c3)OCCO4)CC2)cc1C |  | 0.731 µM [rising, full curve] |  |
| O=C(c1ccco1)N1CCN(C(c2cccs2)c2sc3ncnn3c2O)CC1 (configuration not stated) | 42.7 | 23.1 µM [rising, single point] | 29.1 µM [rising, single point] |

A second format for some results above.
SMILES | cell number change [%] | AC50 [1] | AC50 [2]
Cc1ccc(C(=O)OCC(=O)Nc2cc(S(=O)(=O)N3CCOCC3)ccc2C)cc1 | 20.4 | 6.51 µM [rising, single point] | 1.64 µM [rising, partial curve, poor fit]
O=C(O)c1cc(=O)c2ccccc2[nH]1 | -10 |  | 0.00461 µM [falling, full curve, poor fit]
O=C(NCCC1=CCCCC1)c1ccc(Cl)c([N+](=O)[O-])c1 | -1.6 | 5.17 µM [rising, single point] | 
Cc1cccc(NC(=O)CC2C(=O)NCCN2C(=S)Nc2ccccc2)c1 (configuration not stated) | 93.7 | 25.9 µM [rising, single point] | 
C=CCn1c(=S)[nH]c2cc(C(=O)Nc3ccc(F)cc3)ccc2c1=O | 42.7 | 29.1 µM [rising, single point] | 23.1 µM [falling, single point]
Cc1cccc(C)c1NC(=O)NCc1ccco1 | 7.52 |  | 0.291 µM [rising, partial curve, poor fit]
CCCc1nnc(NC(=O)CCC(=O)N2CCCCC2CC)s1 (configuration not stated) | -1.76 |  | 
CCN1CCN(Cc2ccc(NC(=O)c3ccc(C)c(NC(=O)N4CCNC4=O)c3)cc2C(F)(F)F)CC1 |  |  | 14.6 µM [rising, partial curve]
CC(=O)C1C(c2ccc(Cl)cc2)c2c(noc2C)CC1(C)O (configuration not stated) | 14.4 |  | 29.1 µM [rising, single point]
O=C(NC1CCCCC1)C(=S)NCc1ccccc1 |  |  | 18.4 µM [rising, partial curve]
Cc1ccc(-c2noc(C3CCCN(C(=O)C4CCCCC4)C3)n2)o1 (configuration not stated) | 101 | 29.1 µM [rising, single point] | 29.1 µM [rising, single point]
COc1ccccc1NC(=O)NC1CCCCCCC1 | 2.02 |  | 16.4 µM [rising, single point]
CCC(CO)n1c(SCc2cc(=O)oc3cc(C)ccc23)nc2ccccc2c1=O (configuration not stated) | 4.68 |  | 29.1 µM [rising, single point]
O=C(NCCCc1ccccc1)c1ccc([N+](=O)[O-])cc1Cl | -2.81 |  | 
Cc1cccc(NC(=S)N(Cc2cccs2)Cc2cc3cc(C)ccc3[nH]c2=O)c1 | 58.4 | 32.6 µM [rising, single point] | 16.4 µM [falling, single point]

Remaining list, next part:

| SMILES | cell number change [%] | AC50 [1] | AC50 [2] |
| --- | --- | --- | --- |
| O=C(N/N=C/c1ccc([N+](=O)[O-])s1)c1ccccc1Br | -14.6 |  | 29.1 µM [falling, single point] |
| O=C(c1cccc(C(F)(F)F)c1)c1c[nH]c(C(=O)NCCCN2CCOCC2)c1 | 76.1 | 14.6 µM [rising, partial curve, poor fit] | 29.1 µM [rising, partial curve, poor fit] |
| Cc1ccc(NC(=O)COC(=O)c2cc(=O)c3ccccc3o2)cc1F | -2.73 |  | 29.1 µM [rising, single point] |
| O=C(Nc1ccc(N2CCCC2)c(Cl)c1)c1cccs1 |  | 2.59 µM [falling, partial curve, poor fit] | 1.64 µM [falling, partial curve, poor fit] |
| Cc1ccc(OCCNC(=O)C2CC(=O)N(Cc3ccccc3)C2)cc1 (configuration not stated) | 3.61 |  | 2.31 µM [falling, partial curve] |
| CNCCOc1ccccc1C(C)(C)C | 11.1 |  |  |
| COCCN1Cc2cccc(C(=O)Nc3cccc(-c4nc5ccccc5[nH]4)c3)c2C1=O | -11.8 |  |  |
| Cc1ccccc1Nc1nc(N)nc(CSc2nc3ccccc3c(=O)n2C)n1 | -1.39 |  | 8.2 µM [rising, partial curve] |
| CC1(C)CC2CC(C)(CN2C(=O)c2ccc([N+](=O)[O-])cc2)C1 (configuration not stated) | -10.4 |  | 29.1 µM [falling, single point] |
| NC(=S)c1ccc(C(N)=S)o1 | -8.82 | 0.731 µM [falling, full curve] | 3.26 µM [falling, full curve] |
| O=C(OCc1nnc(-c2ccc(Br)cc2)o1)c1ccco1 | -4.42 |  | 29.1 µM [rising, single point] |
| CC1(C)CCC[C@@]2(C)CC=C(C(=O)O)[C@@H]3C[C@]312 | -30 |  | 0.517 µM [falling, full curve, poor fit] |
| COc1ccccc1C1/C(=C(/O)c2ccccc2)C(=O)C(=O)N1CCO (configuration not stated) | -3.27 |  |  |
| CCCCN(C(=O)C1CCC1)c1c(N)n(Cc2ccccc2)c(=O)[nH]c1=O | 9.19 |  | 0.206 µM [rising, full curve, poor fit] |
| COc1ccc(C(=O)N2CCCC(N3CCN(c4ccccc4OC)CC3)C2)c(OC)n1 (configuration not stated) | -26.3 |  | 29.1 µM [falling, single point] |
| CCOC(=O)/C=C/S(=O)(=O)c1ccc(NC(C)=O)cc1 | -84.9 | 23.1 µM [falling, single point] | 23.1 µM [falling, partial curve] |
| CCN1CCN(S(=O)(=O)c2ccc(S(=O)(=O)NC3CC3)cc2)CC1 | -6.41 |  |  |
| COCCN1Cc2cccc(C(=O)NCc3ccccc3OC)c2C1=O | 5.73 |  |  |
| O=C(Nc1cccc(S(=O)(=O)NC2=NCCC2)c1)c1cnc(Cl)c(Cl)c1 | -23.8 |  | 0.092 µM [falling, full curve, poor fit] |
| COC(=O)c1cc(OC)c(OC)cc1NC(=O)c1cccc(C)c1 | 1.29 | 0.651 µM [falling, single point] | 0.58 µM [falling, partial curve, poor fit] |
